The results in this text go back to paper PMC9077921.

By UniProt entry, the sequences of proteins in these tests, tags left out.
UniProt Q9Y4X4: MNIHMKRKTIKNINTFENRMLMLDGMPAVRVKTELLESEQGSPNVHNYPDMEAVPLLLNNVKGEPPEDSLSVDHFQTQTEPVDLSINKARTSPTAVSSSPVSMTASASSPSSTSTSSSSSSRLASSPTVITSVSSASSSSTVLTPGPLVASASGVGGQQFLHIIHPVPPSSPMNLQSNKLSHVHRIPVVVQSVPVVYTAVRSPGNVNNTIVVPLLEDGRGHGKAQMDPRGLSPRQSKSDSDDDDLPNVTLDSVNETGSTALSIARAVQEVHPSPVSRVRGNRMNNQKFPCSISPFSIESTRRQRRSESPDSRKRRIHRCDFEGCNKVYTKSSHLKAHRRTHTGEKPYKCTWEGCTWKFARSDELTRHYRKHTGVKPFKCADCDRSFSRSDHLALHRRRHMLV
UniProt Q09472: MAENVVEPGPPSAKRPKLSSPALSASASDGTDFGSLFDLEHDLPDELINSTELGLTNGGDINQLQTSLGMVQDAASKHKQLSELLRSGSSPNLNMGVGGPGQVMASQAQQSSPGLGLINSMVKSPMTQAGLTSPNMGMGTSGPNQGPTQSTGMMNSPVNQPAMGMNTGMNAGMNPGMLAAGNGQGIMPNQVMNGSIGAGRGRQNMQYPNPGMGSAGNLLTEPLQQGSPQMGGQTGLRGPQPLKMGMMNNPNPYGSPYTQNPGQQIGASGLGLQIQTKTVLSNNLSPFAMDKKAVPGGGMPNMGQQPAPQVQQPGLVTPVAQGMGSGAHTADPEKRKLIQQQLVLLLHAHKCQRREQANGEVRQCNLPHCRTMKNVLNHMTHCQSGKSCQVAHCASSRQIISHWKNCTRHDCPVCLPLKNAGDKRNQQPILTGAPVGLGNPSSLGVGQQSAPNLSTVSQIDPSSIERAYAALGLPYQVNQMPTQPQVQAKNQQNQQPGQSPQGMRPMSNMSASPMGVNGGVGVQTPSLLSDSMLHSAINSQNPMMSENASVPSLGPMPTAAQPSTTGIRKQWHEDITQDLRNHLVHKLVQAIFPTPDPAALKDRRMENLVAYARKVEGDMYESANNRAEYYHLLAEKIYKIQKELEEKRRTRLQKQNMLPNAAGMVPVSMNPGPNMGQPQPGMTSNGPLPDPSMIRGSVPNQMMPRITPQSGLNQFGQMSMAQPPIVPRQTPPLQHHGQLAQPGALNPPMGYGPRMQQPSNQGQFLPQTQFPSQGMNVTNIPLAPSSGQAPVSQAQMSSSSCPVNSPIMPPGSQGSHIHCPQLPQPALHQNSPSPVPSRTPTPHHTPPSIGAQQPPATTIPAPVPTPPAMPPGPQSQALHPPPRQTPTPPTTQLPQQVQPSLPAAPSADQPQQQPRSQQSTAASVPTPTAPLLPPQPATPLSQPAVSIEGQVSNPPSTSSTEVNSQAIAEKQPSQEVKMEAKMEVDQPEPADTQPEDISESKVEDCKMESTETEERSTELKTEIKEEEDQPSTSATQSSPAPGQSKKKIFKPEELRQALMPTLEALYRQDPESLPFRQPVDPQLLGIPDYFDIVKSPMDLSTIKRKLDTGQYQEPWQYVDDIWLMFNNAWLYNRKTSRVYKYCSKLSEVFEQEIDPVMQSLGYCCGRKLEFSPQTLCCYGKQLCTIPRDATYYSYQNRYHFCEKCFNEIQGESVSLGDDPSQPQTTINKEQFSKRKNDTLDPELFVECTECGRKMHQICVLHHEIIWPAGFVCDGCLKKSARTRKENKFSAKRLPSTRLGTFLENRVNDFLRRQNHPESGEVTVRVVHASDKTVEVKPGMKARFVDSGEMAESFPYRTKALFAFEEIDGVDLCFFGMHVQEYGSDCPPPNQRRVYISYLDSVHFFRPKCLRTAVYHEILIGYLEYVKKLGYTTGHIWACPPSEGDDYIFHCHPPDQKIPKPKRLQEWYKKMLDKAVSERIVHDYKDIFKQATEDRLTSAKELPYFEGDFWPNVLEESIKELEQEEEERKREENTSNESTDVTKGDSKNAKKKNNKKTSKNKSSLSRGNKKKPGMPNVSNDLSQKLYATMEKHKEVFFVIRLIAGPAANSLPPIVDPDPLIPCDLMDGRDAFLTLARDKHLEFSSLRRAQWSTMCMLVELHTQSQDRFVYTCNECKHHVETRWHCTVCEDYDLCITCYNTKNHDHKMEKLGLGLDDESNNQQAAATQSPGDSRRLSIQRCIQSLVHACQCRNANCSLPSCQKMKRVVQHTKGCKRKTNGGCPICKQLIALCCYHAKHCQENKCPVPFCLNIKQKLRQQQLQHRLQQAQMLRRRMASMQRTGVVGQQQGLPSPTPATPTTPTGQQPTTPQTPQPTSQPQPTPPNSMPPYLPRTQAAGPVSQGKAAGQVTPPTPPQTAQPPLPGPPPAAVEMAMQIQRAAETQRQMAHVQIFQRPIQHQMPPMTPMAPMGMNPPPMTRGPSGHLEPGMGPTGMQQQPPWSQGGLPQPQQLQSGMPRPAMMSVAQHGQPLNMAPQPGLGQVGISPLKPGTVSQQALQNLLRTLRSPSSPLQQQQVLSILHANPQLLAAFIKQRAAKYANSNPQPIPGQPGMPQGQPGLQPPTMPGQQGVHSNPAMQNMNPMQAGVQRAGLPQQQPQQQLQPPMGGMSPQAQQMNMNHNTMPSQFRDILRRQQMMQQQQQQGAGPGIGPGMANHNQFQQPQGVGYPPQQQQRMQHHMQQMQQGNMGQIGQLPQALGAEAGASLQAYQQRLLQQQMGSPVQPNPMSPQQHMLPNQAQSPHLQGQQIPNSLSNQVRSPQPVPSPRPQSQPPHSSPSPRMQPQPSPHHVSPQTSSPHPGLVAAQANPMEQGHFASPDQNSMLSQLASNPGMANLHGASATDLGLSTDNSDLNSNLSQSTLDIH

The test deals with Kruppel like factor 12 (human (endogenous in THP-1-derived TAMs)) (UniProt Q9Y4X4). In words: co-IP; in THP-1-derived TAMs; normal rabbit IgG as negative control; which antibody precipitated is not told in the text shown.

No constants are given. Whether binding was seen depends on the method and setting. Binding seen in cells or lysates may run through a third protein. Some results given as binding are weak or reduced against the parent protein; the word gives no strength.

As to “histone acetyltransferase EP300 (from UniProt Q09472 1-2414)”, the binding result was “binds”.
